Measured values: the supplement of paper PMC12819154, “High-throughput peptide-centric local stability assay extends protein–ligand identification to membrane proteins, tissues and bacteria” (Nature Structural & Molecular Biology, 2025)
This is one part of the list. Small differences around the control level are noise.

The chains behind the UniProt entries cited, without tags or fusion partners. Where a name states a change or a piece, a line headed by the entry shows the natural chain unless it says otherwise.
UniProt Q8BGI5: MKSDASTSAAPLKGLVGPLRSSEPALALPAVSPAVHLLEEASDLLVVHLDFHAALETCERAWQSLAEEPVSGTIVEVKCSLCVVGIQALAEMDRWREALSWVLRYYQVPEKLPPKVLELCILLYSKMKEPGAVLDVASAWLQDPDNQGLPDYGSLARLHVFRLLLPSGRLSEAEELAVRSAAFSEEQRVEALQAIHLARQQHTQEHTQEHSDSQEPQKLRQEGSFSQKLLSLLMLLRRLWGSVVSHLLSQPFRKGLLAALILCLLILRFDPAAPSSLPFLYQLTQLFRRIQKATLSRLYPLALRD
UniProt Q8BH48: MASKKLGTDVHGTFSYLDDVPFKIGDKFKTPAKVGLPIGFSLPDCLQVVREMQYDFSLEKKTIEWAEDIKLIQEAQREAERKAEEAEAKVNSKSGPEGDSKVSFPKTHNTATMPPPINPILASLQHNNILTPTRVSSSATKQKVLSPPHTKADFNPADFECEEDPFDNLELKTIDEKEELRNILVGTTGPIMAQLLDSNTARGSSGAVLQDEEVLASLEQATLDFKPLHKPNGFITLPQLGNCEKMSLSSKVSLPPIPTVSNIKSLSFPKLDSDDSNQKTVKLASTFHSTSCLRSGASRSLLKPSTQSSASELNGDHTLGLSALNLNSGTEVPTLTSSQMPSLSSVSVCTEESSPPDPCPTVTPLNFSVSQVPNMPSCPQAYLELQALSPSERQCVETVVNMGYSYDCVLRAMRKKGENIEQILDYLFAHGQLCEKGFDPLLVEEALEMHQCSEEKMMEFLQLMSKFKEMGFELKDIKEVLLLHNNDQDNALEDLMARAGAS
UniProt Q80X73, whole entry: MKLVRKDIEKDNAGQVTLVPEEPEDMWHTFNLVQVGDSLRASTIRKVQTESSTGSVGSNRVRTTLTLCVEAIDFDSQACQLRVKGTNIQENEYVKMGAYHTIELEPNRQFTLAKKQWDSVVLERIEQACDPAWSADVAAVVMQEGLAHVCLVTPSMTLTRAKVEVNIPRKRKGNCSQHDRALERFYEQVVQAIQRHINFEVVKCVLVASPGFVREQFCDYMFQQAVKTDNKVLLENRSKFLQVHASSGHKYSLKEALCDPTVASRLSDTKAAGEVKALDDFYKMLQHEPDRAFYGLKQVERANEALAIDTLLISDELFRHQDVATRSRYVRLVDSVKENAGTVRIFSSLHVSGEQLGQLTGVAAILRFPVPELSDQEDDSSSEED
UniProt Q80YT7: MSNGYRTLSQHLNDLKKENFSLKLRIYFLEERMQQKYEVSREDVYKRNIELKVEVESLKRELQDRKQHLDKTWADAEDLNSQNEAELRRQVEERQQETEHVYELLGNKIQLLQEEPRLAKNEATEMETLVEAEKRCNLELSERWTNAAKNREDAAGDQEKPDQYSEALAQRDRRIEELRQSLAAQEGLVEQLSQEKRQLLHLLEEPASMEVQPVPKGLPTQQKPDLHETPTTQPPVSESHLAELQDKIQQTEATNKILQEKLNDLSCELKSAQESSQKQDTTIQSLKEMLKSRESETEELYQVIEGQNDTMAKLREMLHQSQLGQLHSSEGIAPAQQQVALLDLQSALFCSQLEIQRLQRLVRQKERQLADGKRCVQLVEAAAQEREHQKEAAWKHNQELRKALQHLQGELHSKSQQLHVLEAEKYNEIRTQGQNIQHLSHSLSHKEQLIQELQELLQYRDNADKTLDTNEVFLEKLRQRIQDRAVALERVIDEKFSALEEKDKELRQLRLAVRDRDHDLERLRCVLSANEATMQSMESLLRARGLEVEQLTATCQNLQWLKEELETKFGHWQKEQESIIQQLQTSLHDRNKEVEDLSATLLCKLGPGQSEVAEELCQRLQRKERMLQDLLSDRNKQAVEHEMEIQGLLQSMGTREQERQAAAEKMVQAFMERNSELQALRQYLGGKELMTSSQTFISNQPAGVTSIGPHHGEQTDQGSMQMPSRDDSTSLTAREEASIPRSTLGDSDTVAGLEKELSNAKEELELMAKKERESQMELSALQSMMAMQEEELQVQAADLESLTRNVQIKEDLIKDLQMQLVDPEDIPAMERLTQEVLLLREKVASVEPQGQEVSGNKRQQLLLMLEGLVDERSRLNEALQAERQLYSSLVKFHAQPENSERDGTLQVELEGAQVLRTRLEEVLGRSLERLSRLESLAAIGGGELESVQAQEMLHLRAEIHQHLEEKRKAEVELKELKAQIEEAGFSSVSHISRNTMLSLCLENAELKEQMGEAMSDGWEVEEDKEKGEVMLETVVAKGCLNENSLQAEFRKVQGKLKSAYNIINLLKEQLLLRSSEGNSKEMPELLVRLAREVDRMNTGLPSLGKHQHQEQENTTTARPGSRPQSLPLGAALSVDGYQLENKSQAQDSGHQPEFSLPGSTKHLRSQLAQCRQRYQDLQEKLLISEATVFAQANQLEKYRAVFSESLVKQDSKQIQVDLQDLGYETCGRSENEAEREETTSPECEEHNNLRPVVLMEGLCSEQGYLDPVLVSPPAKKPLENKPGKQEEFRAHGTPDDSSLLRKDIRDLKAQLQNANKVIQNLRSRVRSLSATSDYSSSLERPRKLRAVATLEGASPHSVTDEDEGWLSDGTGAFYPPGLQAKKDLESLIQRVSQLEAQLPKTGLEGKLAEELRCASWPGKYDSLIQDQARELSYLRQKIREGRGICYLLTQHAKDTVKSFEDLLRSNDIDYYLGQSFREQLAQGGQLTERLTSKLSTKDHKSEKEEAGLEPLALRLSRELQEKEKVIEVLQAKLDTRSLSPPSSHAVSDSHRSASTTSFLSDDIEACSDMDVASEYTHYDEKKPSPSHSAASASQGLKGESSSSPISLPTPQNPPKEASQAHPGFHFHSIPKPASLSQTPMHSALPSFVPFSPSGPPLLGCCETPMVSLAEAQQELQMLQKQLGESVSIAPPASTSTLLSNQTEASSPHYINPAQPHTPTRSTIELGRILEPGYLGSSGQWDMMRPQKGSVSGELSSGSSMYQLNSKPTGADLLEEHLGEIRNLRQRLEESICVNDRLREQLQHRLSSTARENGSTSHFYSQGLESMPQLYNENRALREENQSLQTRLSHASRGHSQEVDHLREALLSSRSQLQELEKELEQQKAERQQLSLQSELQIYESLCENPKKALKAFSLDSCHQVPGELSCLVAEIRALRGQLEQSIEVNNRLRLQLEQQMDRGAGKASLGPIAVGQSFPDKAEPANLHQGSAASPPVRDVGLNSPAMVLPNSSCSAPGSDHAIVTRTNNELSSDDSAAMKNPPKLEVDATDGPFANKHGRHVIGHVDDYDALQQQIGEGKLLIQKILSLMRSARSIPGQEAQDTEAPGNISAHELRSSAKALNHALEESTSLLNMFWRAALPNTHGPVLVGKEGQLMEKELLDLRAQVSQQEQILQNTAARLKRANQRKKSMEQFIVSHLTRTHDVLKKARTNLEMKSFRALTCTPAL
UniProt Q80YW0: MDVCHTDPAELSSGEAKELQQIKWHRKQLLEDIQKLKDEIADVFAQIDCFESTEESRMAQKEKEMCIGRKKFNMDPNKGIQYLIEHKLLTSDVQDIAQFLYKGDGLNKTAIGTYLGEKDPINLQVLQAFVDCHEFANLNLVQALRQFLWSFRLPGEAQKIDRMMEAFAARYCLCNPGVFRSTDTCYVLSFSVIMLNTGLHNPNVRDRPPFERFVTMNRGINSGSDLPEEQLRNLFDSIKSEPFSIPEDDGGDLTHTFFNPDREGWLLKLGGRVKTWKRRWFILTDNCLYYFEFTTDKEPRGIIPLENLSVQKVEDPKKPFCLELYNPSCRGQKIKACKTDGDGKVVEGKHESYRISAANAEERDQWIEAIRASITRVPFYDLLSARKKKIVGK
UniProt Q8BH74: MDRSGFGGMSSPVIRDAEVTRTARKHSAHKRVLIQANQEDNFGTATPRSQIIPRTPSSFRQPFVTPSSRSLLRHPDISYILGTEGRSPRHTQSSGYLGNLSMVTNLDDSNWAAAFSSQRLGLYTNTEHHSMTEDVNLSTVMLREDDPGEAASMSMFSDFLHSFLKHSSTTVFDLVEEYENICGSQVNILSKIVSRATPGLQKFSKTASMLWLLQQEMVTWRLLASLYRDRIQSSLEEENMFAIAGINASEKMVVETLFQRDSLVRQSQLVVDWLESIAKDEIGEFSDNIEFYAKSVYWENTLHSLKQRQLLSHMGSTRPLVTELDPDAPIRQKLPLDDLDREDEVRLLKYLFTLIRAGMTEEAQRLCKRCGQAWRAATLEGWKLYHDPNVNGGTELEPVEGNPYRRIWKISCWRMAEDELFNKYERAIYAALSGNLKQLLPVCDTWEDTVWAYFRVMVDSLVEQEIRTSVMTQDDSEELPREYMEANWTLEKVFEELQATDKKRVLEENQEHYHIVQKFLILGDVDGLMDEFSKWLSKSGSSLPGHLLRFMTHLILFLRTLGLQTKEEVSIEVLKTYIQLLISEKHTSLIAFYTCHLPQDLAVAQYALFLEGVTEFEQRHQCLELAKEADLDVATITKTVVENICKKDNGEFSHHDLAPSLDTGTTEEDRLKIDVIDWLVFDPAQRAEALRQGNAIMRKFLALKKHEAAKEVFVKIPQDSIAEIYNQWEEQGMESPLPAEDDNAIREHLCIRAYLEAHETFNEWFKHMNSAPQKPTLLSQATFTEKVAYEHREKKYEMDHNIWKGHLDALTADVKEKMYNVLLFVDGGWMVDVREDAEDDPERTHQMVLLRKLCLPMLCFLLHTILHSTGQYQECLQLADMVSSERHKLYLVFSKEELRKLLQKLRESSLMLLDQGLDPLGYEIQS
UniProt Q8BGJ9: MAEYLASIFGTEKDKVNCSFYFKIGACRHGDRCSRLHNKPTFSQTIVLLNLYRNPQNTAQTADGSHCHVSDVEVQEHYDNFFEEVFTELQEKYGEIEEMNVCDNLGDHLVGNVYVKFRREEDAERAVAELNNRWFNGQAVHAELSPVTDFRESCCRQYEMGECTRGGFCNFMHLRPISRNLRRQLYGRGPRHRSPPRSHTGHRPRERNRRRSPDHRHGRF
UniProt Q8BHG1: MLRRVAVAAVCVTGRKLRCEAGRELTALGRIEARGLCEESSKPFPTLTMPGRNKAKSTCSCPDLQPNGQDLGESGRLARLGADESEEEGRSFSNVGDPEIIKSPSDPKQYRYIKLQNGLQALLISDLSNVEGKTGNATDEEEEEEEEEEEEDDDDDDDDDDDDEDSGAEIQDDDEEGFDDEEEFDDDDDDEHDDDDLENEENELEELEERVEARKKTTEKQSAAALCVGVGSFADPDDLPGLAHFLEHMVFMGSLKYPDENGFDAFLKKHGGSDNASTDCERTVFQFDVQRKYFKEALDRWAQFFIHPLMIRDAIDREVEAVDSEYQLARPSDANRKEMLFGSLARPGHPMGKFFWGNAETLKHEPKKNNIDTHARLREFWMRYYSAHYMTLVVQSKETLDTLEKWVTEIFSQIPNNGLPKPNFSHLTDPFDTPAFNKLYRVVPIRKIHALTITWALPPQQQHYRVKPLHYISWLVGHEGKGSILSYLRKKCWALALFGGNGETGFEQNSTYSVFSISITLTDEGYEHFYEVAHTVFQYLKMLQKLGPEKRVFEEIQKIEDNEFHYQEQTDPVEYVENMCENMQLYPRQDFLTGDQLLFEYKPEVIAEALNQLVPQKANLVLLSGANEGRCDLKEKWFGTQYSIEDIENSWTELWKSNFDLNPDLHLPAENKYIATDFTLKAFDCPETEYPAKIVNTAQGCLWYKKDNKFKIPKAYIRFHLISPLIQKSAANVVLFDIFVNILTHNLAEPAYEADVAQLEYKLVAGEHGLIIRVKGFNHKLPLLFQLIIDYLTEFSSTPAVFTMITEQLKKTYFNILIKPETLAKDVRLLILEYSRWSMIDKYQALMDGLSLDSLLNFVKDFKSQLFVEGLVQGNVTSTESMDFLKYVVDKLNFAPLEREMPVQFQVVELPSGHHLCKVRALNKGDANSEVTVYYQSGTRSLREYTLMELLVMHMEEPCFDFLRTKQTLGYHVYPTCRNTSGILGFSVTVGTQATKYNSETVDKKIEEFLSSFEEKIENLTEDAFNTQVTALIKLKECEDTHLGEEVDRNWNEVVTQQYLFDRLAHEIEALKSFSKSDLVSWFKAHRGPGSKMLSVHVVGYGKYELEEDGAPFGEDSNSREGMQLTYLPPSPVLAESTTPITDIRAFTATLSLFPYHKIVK
UniProt Q8BGA9, whole entry: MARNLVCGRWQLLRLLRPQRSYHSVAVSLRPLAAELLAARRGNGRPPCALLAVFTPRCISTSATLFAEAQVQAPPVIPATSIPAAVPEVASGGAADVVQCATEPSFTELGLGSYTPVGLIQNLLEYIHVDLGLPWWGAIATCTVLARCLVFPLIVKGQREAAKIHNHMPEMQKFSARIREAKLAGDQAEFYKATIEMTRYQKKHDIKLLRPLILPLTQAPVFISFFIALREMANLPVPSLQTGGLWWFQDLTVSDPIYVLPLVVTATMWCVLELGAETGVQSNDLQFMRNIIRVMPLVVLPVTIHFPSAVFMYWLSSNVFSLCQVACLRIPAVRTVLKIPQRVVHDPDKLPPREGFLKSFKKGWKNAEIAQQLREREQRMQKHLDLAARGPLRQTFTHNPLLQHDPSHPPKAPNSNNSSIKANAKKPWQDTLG

Compound: CN[C@@H]1C[C@H]2O[C@@](C)([C@@H]1OC)n1c3ccccc3c3c4c(c5c6ccccc6n2c5c31)C(=O)NC4 [staurosporine]
Experiment: log2 fold change of tryptic peptide abundance, ligand vs vehicle (limited proteolysis) (log2 ratio); higher = more trypsin-susceptible (destabilized)
Details: ligand concentration: 20 uM; sample: mouse liver crude lysate; replicate design: treated separately

Target | log2 fold change
UniProt Q8BGI5 (peptide sequence: KSDASTSAAPLK, peptide start residue: 2) | -0.712
UniProt Q8BH64 (peptide sequence: VVGTPEVLR, peptide start residue: 243) | 0.306
UniProt Q80XR2 (peptide sequence: GQTLALTQQQR, peptide start residue: 496) | -0.378
UniProt Q80W47 (peptide sequence: GAYVPSSPTR, peptide start residue: 389) | -0.137
UniProt Q8BH48 (peptide sequence: LASTFHSTSCLR, peptide start residue: 283) | 0.117
UniProt Q80X73 (peptide sequence: CVLVASPGFVR, peptide start residue: 204) | 0.0804
UniProt Q8BHB4 (peptide sequence: EAEYEESVAK, peptide start residue: 719) | 0.24
UniProt Q8BG48 (peptide sequence: EDKENIPEDGSLVSKR, peptide start residue: 338) | -0.432
UniProt Q80WG5 (peptide sequence: MNGSMDKK, peptide start residue: 190) | -0.357
UniProt Q80YT7 (peptide sequence: MLQDLLSDRNK, peptide start residue: 626) | -0.68
UniProt Q80ZV0 (peptide sequence: SIDAFFGAK, peptide start residue: 293) | 0.168
UniProt Q80VI1 (peptide sequence: CVLPQLELHPGLEDK, peptide start residue: 347) | 0.255
UniProt Q80YW0 (peptide sequence: DRPPFER, peptide start residue: 206) | -0.175
UniProt Q8BH74 (peptide sequence: TVVENICK, peptide start residue: 639) | -0.198
UniProt Q810U5 (peptide sequence: SKEGDEAHR, peptide start residue: 248) | -0.616
UniProt Q80XI3 (peptide sequence: VADEGESLR, peptide start residue: 446) | -0.184
UniProt Q8BGJ9 (peptide sequence: VNCSFYFK, peptide start residue: 16) | 0.283
UniProt Q8BHG1 (peptide sequence: LGADESEEEGR, peptide start residue: 80) | 0.177
UniProt Q8BGA9 (peptide sequence: NAEIAQQLR, peptide start residue: 366) | 0.0529
UniProt Q8BFZ3 (peptide sequence: GIHETTFNSIMK, peptide start residue: 274) | 0.0568
UniProt Q8BGS0 (peptide sequence: APLKGPLRK, peptide start residue: 266) | -0.82
UniProt Q8BH00 (peptide sequence: EAFPAWSSR, peptide start residue: 56) | 0.112
UniProt Q8BGQ1 (peptide sequence: CHDVVIDTCR, peptide start residue: 444) | 0.282
UniProt Q80VY9 (peptide sequence: KYSCVILDEAHER, peptide start residue: 178) | -0.396

Reprinted from the listing (two entries):
Target | log2 fold change
UniProt Q8BHB4 (peptide sequence: EAEYEESVAK, peptide start residue: 719) | 0.24
UniProt Q8BG48 (peptide sequence: EDKENIPEDGSLVSKR, peptide start residue: 338) | -0.432
